These results are taken from PMC3117680.

For this test, the target named is human F-spondin FS domain (amino acids V191-K434) (human) (UniProt Q9HCB6). The experiment in a line: SEC; FPLC on Superdex 75 calibrated with six protein standards; 200 mM NaCl, 20 mM HEPES pH 7.8; principal peak at 22.7 kDa; both purified. Background: In gel filtration, larger molecules generally elute earlier.

Results are given in words; binding and its absence hold for the method and conditions named.

B1: human F-spondin FS domain (amino acids V191-K434) (domain or fragment, UniProt Q9HCB6 191-434)
chain: RSPWPGVTDKPILDCCACGTAKYRLTFYGNWSEKTHPKDYPRRANHWSAIIGGSHSKNYVLWEYGGYASEGVKQVAELGSPVKMEEEIRQQSDEVLTVIKAKAQWPAWQPLNVRAAPSAEFSVDRTRHLMSFLTMMGPSPDWNVGLSAEDLCTKECGWVQKVVQDLIPWDAGTDSGVTYESPNKPTIPQEKIRPLTSLDHPQSPFYDPEGGSITQVARVVIERIARKGEQCNIVPDNVDDIVADLAPEEKTG
modifications: N-linked glycans at N214 (not fully processed, Drosophila S2)
Take B1: the binding result was “no binding”.
